Measured data: PubChem BioAssay AID504744 (Drosophila RNAi Screening Center, 2011)
Test: 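Find genes whose loss alters insulin-driven dAkt phosphorylation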 (primary screen). Cell system: Drosophila Kc167 cells. Reagent: long dsRNA against Drosophila genes, 250 ng dsRNA per well of a 384-well plate. Time to read-out: 3 days of knock-down, then overnight serum-free starvation before stimulation. Challenge: bovine insulin at 387 nM for 10 minutes after 12 h without serum. Detection: 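Per-well phospho-dAkt level from an in-cell fluorescent antibody stain, divided by a DNA-dye signal; log2 residuals turned into z-scores that take cell number into account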. Hit rule: 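Under insulin, a gene counts as a hit if the average z-score of two replicates lies above 2.5 or below -2.5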.
The deposit covers about 23,000 reagents; shown is an unselected part of those with a known target gene and a result. In the full data, 98 (0.43%) are marked active. 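Only hit calls are given; the phospho-dAkt signals, z-scores and hit direction were not deposited.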 Names joined by + are all predicted targets of the reagent. Reagent sequences are not shown.

| gene knocked down | dsRNA | outcome |
| --- | --- | --- |
| Prim2 (DNA primase subunit 2) | DRSC11610 | inactive |
| hiw (highwire) | DRSC20338 | inactive |
| hiw (highwire) | DRSC20339 | inactive |
| CG30379 | DRSC05070 | inactive |
| Rab3-GEF (Rab3 GDP-GTP exchange factor) | DRSC19954 | inactive |
| Rab3-GEF (Rab3 GDP-GTP exchange factor) | DRSC19955 | inactive |
| Rab3-GEF (Rab3 GDP-GTP exchange factor) | DRSC19956 | inactive |
| Ccs (Copper chaperone for superoxide dismutase) | DRSC06692 | inactive |
| CG5885 | DRSC02910 | inactive |
| CG6610 | DRSC10674 | inactive |
| CG31740 | DRSC01619 | inactive |
| CG15048 (retired record) | DRSC19624 | inactive |
| RpL27 (Ribosomal protein L27) | DRSC15638 | inactive |
| CG10347 | DRSC19352 | inactive |
| CG12522 | DRSC09088 | inactive |
| CG3760 | DRSC04415 | inactive |
| lin (lines) | DRSC07644 | inactive |
| Pus7 (Pseudouridine synthase 7) | DRSC10703 | inactive |
| kuk (kugelkern) | DRSC15730 | inactive |
| run (runt) | DRSC20584 | inactive |
| run (runt) | DRSC21515 | inactive |
| CG14273 | DRSC02377 | inactive |
| Ntf-2r (Nuclear transport factor-2-related) | DRSC02019 | inactive |
| CG12310 | DRSC09878 | inactive |
| RpS9 (Ribosomal protein S9) | DRSC11273 | inactive |
| Ugt37A3 (UDP-glycosyltransferase family 37 member A3) | DRSC15937 | inactive |
| loh (lonely heart) | DRSC01122 | inactive |
| loh (lonely heart) | DRSC02943 | inactive |
| mei-P26 (meiotic P26) | DRSC17735 | inactive |
| CG6833 | DRSC10721 | inactive |
| Obp19b (Odorant-binding protein 19b) | DRSC20536 | inactive |
| TotE (Turandot E) | DRSC21355 | inactive |
| mu2 (mutator 2) | DRSC08726 | inactive |
| mu2 (mutator 2) | DRSC21534 | inactive |
| CG11779 + CG5835 | DRSC15886 | inactive |
| CG32988 | DRSC02692 | inactive |
| Nup93-1 (Nucleoporin 93kD-1) | DRSC19344 | inactive |
| CG8260 | DRSC20098 | inactive |
| CCT7 (Chaperonin containing TCP1 subunit 7) | DRSC16410 | inactive |
| Tcs6 + PIG-P | DRSC13742 | inactive |
| Tcs6 + PIG-P | DRSC14893 | inactive |
| CG8031 | DRSC16364 | inactive |
| CG9581 | DRSC20695 | inactive |
| CG9581 | DRSC22247 | inactive |
| CG18557 | DRSC00524 | inactive |
| RhoGAP102A (Rho GTPase activating protein at 102A) | DRSC17110 | inactive |
| RhoGAP102A (Rho GTPase activating protein at 102A) | DRSC17145 | inactive |
| Tret1-2 (Trehalose transporter 1-2) | DRSC07117 | inactive |
| CNT1 + CG13742 | DRSC06413 | inactive |
| mRpL36 (mitochondrial ribosomal protein L36) | DRSC10337 | inactive |
| CG7872 | DRSC20062 | inactive |
| Spn47C (Serpin 47C) | DRSC07030 | inactive |
| Prestin | DRSC10507 | inactive |
| Agpat1 (1-Acylglycerol-3-phosphate O-acyltransferase 1) | DRSC19879 | inactive |
| Agpat1 (1-Acylglycerol-3-phosphate O-acyltransferase 1) | DRSC19880 | inactive |
| Sox100B | DRSC15090 | inactive |
| Sox100B | DRSC16866 | inactive |
| spas (spastin) | DRSC15929 | inactive |
| Pkc53E (Protein C kinase 53E) | DRSC05636 | inactive |
| Pkc53E (Protein C kinase 53E) | DRSC07510 | inactive |
| CG13898 | DRSC08368 | inactive |
| bora (aurora borealis) | DRSC10744 | inactive |
| sxc (super sex combs) | DRSC04911 | inactive |
| ninaC (neither inactivation nor afterpotential C) | DRSC03579 | inactive |
| CG4701 | DRSC01952 | inactive |
| Cyp304a1 (Cytochrome P450 304a1) | DRSC16623 | inactive |
| Ace (Acetylcholine esterase) | DRSC12959 | inactive |
| Ace (Acetylcholine esterase) | DRSC14100 | inactive |
| Gk2 (Glycerol kinase 2) | DRSC08610 | inactive |
| CG3808 | DRSC10377 | inactive |

No new results follow: 12 of the entries above.
| gene knocked down | dsRNA | outcome |
| --- | --- | --- |
| Ntf-2r (Nuclear transport factor-2-related) | DRSC02019 | inactive |
| CG12310 | DRSC09878 | inactive |
| RpS9 (Ribosomal protein S9) | DRSC11273 | inactive |
| Ugt37A3 (UDP-glycosyltransferase family 37 member A3) | DRSC15937 | inactive |
| loh (lonely heart) | DRSC01122 | inactive |
| loh (lonely heart) | DRSC02943 | inactive |
| mei-P26 (meiotic P26) | DRSC17735 | inactive |
| CG6833 | DRSC10721 | inactive |
| Obp19b (Odorant-binding protein 19b) | DRSC20536 | inactive |
| TotE (Turandot E) | DRSC21355 | inactive |
| mu2 (mutator 2) | DRSC08726 | inactive |
| mu2 (mutator 2) | DRSC21534 | inactive |

Continued.
| gene knocked down | dsRNA | outcome |
| --- | --- | --- |
| CG33523 | DRSC09814 | inactive |
| CG33523 | DRSC22155 | inactive |
| Osi10b (Osiris 10b) | DRSC12279 | inactive |
| CG31465 | DRSC16090 | inactive |
| ena (enabled) | DRSC05779 | inactive |
| ena (enabled) | DRSC07610 | inactive |
| CG3704 | DRSC18174 | inactive |
| CG3704 | DRSC18645 | inactive |
| CG33281 | DRSC00421 | inactive |
| Ns4 (Nucleostemin 4) | DRSC03199 | inactive |
| CG8414 | DRSC07168 | inactive |
| CG13991 | DRSC02323 | inactive |
| mRRF1 (mitochondrial ribosome recycling factor 1) | DRSC10421 | inactive |
| CG5327 | DRSC06930 | inactive |
| CG8065 | DRSC10959 | inactive |
| Bdbt (Bride of doubletime) | DRSC15218 | inactive |
| Eip63F-1 (Ecdysone-induced protein 63F 1) | DRSC08072 | inactive |
| Eip63F-1 (Ecdysone-induced protein 63F 1) | DRSC08659 | inactive |
| Vha16-2 (Vacuolar H[+] ATPase 16kD subunit 2) | DRSC10873 | inactive |
| Corin | DRSC06818 | inactive |
| His1:CG33816 + His1:CG33828 + His1:CG33819 + 21 more | DRSC21266 | inactive |
| clu (clueless) | DRSC07181 | inactive |
| Ctr1A (Copper transporter 1A) | DRSC18336 | inactive |
| GramD1B (GRAM domain containing 1B) | DRSC00426 | inactive |
| GramD1B (GRAM domain containing 1B) | DRSC00591 | inactive |
| tor (torso) | DRSC07707 | inactive |
| CG11626 | DRSC14336 | inactive |
| CG34367 | DRSC02238 | inactive |
| CG34367 | DRSC02850 | inactive |
| CG3119 | DRSC00569 | inactive |
| lncRNA:roX2 (long non-coding RNA on the X 2) | DRSC22237 | inactive |
| CG15695 | DRSC15117 | inactive |
| CG8173 | DRSC20088 | inactive |
| ppk9 (pickpocket 9) | DRSC04134 | inactive |
| ppk9 (pickpocket 9) | DRSC04135 | inactive |
| Dbp21E2 (DEAD box protein 21E2) | DRSC00616 | inactive |
| CG15550 | DRSC15088 | inactive |
